At least one structure is not confirmed: it was looked up by name or label, or the drawing left a doubt.
Key:
Type in all cases: cell-based, human
[1] = tested on: β-catenin; assay: ubiquitination of β-catenin in HUVS cells (Rad23 capture); conditions: PTN-stimulated HUVS cells pretreated 30 minutes with inhibitor
Procedure: FIG. 12: FIG. 12 illustrates: human umbilical vein stromal cells not stimulated (lane 1) or stimulated with 50 ng/ml of PTN for 15 (lane 2), or 30 minutes (lane 3) were used to prepare cell lysates that were incubated with Rad23-conjugated agarose beads to pull-down ubiquitinated proteins and analyzed in Western-blots probed with anti-β-catenin antibodies (upper panel) and reprobed with anti-ubiquitin antibodies (lower panel). Cells pre-incubated with LY294002 were stimulated with PTN for 15 minutes (lane 4). Cells pre-incubated with lactacystin were stimulated with PTN for 15 minutes (lane 5).
Human umbilical vein stromal cells were lysed in a buffer prepared with 50 mM Tris, pH 7.2, 150 mM NaCl pH 7.5, 1% NP40, 0.25% sodium deoxicholate, Complete EDTA-free Protease Inhibitor Cocktail and 2 mM sodium orthovanadate. […] The beads were washed 4 times with lysis buffer and analyzed using Western blots.
β-catenin is rapidly degraded through the ubiquitin proteasome proteolytic pathway, thereby setting steady state levels of β-catenin by balancing its degradation with new synthesis of this key regulatory protein. […] Proteins captured with Rad23 Sepharose were eluted and analyzed in Western blots probed with anti-β-catenin antibodies (FIG. 12, upper panel) and the blots were reprobed with anti-ubiquitin antibodies (FIG. 12, lower panel). […]

[2] = tested on: Akt; assay: phosphorylation of Akt in PTN-stimulated HUVS cells; conditions: PI3K inhibitor for one hour; PTN 2-20 minutes
Procedure: (§1) FIG. 11: FIG. 11 illustrates: human umbilical vein stromal cells not stimulated or stimulated with 50 ng/ml of PTN for 2, 5, 10 or 20 minutes were used to prepare cell lysates that were analyzed in Western blots probed with anti-phospho threonine 308 Akt (panel A), anti-phospho serine 473 Akt (panel B), anti-phospho-serine 9 GSK3β (panel C), anti-phospho-serine 33, 37 and […] β-catenin (panel D) or anti-actin antibodies (panel E). Akt was immunoprecipitated from those lysates using anti-Akt antibodies, incubated with a fusion peptide containing the 20 N-terminal amino acids of GSK3β and analyzed in Western-blots probed using anti-phospho-serine 9 GSK3β antibodies (panel F).
To pursue this pathway of nuclear import of β-catenin, HUVS cells were stimulated with PTN (50 ng/ml), lysed, and analyzed in Western blots probed with anti-phosphothreonine 308 Akt or anti-phosphoserine 473 Akt antibodies (FIG. 11, panel A and B). […]
(§2) The association of adaptor proteins that associate with specific phosphorylated sites in activated EGFR are responsible for the activation of phosphatidyl-inositol 3-kinase (PI3K). […] The cells were stimulated with PTN for 2, 5, 10, and 20 minutes, cell lysates were prepared, and the lysates were analyzed in Western blots probed with anti-phospho-Akt (Ser473), anti-phospho-GSKβ (Ser9), and anti-phospho-β-catenin (Thr42) antibodies. […]

[3] = tested on: GSK3β; assay: phosphorylation of GSK3β serine 9 in PTN-stimulated HUVS cells; conditions: PI3K inhibitor for one hour; PTN 2-20 minutes
Procedure: as §1
Lysates from HUVS cells stimulated with PTN as above were then analyzed in Western blots probed with anti-phosphoserine 9 GSK3β antibodies. GSK3β is known to be phosphorylated by Akt at serine 9 and to inactivate its catalytic activity. […]
as §2

[4] = tested on: β-catenin; assay: phosphorylation of serines 33, 37 and threonine 41 in β-catenin in HUVS cells; conditions: PI3K inhibitor for one hour; PTN 2-20 minutes
Procedure: as §1
A key function of activated GSK3β in the pathway of β-catenin translocation into the nuclei is to phosphorylate β-catenin serines 33, 37 and threonine 41. […] The levels of phosphorylation of serine 33, 37 and threonine 41 in β-catenin were therefore measured in Western blots of lysates from PTN-stimulated cells probed with anti-β-catenin antibodies that recognize phosphoserines 33, 37 and threonine 41. […] In the control study, β-catenin phosphorylated in serines 33, 37 and threonine 41 was readily detected when the cells are not stimulated with PTN. […]

## O=c1cc(N2CCOCC2)oc2c(-c3ccccc3)cccc12 [LY294002, reference compound]
[1]
  levels of ubiquitinated β-catenin: sharply reduced
[2]
  PTN-stimulated phosphorylation of Ser473 in Akt: prevents
[3]
  PTN-stimulated phosphorylation of Ser9 in GSK3β: prevents
[4]
  PTN-stimulated phosphorylation of threonine 41 in β-catenin: prevents
